“And” between values parts separate entries of the source, which are not always exact repeats. Equal values may be shown once. Where a name gives a salt, the structure may show the parent alone. The list shows a part of the results. Most values lie at the level of the controls, where differences are scatter.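 Differential scanning fluorimetry gave melting temperatures in a one-replicate pilot screen of a library of approved drugs plus clinical or known-target compounds. Hits increasing melting point at least 2 °C were the strongest stabilizers, while negative shifts signify destabilization.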
Each molecule was assayed on SARS-CoV-2 main protease (Mpro, nsp5) (assay: thermal shift ΔTm of Mpro relative to plate average Tm; higher = stronger thermal stabilization of Mpro (binding)). Details: 10 µM; protein concentration 1 µM.

SMILES | thermal shift ΔTm of Mpro
COCCOC(=O)C1=C(C)NC(C)=C(C(=O)OC(C)C)C1c1cccc([N+](=O)[O-])c1 (stereo not drawn) [Nimodipine] | -0.156 °C
NCCS [Cysteamine HCl] | -0.089 °C
COc1c(C)c2c(c(O)c1C/C=C(\C)CCC(=O)OCCN1CCOCC1)C(=O)OC2 [Mycophenolate Mofetil] | 0.443 °C
CN1C(C(=O)Nc2ccccn2)=C(O)c2ccccc2S1(=O)=O [Piroxicam] | -0.156 °C
C[C@]12CCC(=O)C=C1C=C[C@@H]1[C@@H]2CC[C@@]2(C)[C@H]1CC[C@@]21CCC(=O)O1 [Canrenone] | 0.193 °C
CC1(C)CC(=O)c2c(C(F)(F)F)nn(-c3ccc(C(N)=O)c(N[C@H]4CC[C@H](OC(=O)CN)CC4)c3)c2C1 | -0.000838 °C and 0.0214 °C
CC1(C)[C@@H](O)CC[C@]2(C)[C@H]3C(=O)C=C4[C@@H]5C[C@@](C)(C(=O)O)CC[C@]5(C)CC[C@@]4(C)[C@]3(C)CC[C@@H]12 [Enoxolone] | -0.439 °C
Cc1nc2ccc(NC(=O)CCNC(=O)CCCc3ccc(CC(C(=O)O)C(=O)O)cc3)cc2s1 | 0.145 °C
Nc1ccncc1N [Amifampridine] | 0.305 °C
Nc1ccccc1NC(=O)CCCCCC(=O)Nc1ccccc1 | 0.132 °C
C[C@H]1COC2(CCN(c3nc(=O)c4cc(C(F)(F)F)cc([N+](=O)[O-])c4s3)CC2)O1 (racemic) [BTZ043 Racemate] | 0.169 °C
CCCNC(C)C(=O)Nc1c(C)csc1C(=O)OC (stereo not drawn) [Articaine HCl] | 0.148 °C
CNCc1ccc(-c2[nH]c3cc(F)cc4c3c2CCNC4=O)cc1 | 0.238 °C
CNCc1ccc(-c2[nH]c3cc(F)cc4c3c2CCNC4=O)cc1 [Rucaparib] | 0.202 °C
COc1cccc(N(C)C(=S)Oc2ccc3c(c2)CCCC3)n1 [Liranaftate] | -0.0601 °C
CC(=O)C1=C(O)C=C2Oc3c(C(C)=O)c(O)c(C)c(O)c3C2(C)C1=O (single isomer, unassigned; (+)) [(+)-Usniacin] | 0.0194 °C
CCNC(=O)c1noc(-c2cc(C(C)C)c(O)cc2O)c1-c1ccc(CN2CCOCC2)cc1 | -0.0895 °C
Cc1cnc(-c2cnc(NCCNc3ccc(C#N)cn3)nc2-c2ccc(Cl)cc2Cl)[nH]1 | 0.145 °C and 0.308 °C
O=C(O)c1cc2cccc([N+](=O)[O-])c2[nH]1 | 0.0142 °C
COc1ccc(CCc2nc3cc(-c4c(C)noc4C)ccc3n2C[C@H](C)N2CCOCC2)cc1Cl | -0.067 °C
CC(=O)C1(O)CCC2(O)C3(O)CC=C4CC(O)CCC4(C)C3CC(OC(=O)c3ccc(O)cc3)C12C (stereo not drawn) [Qingyangshengenin] | -0.0652 °C

SMILES | thermal shift ΔTm of Mpro
Cc1c(NC(=O)OC[C@@H]2COCCN2)cn2ncnc(Nc3ccc4c(cnn4Cc4cccc(F)c4)c3)c12 | 0.115 °C
O=C(c1ccc(-c2ccc(Cl)cc2)o1)N(Cc1ccccn1)c1ccc(N2CCNCC2)cc1 [MK2-IN-1 hydrochloride] | 0.111 °C
Cc1ccc2nc(NCCN)c3ncc(C)n3c2c1 | -0.16 °C
CC(C)(C)c1cc(C=C(C#N)C#N)cc(C(C)(C)C)c1O [Tyrphostin 9] | 1.09 °C
NCCC(O)(P(=O)(O)O)P(=O)(O)O [Pamidronate disodium salt] | 0.193 °C
CC(C[N+](C)(C)C)OC(N)=O (stereo not drawn) [Bethanechol chloride] | -0.0596 °C
O=C(O)c1nn(Cc2ccc(Cl)cc2Cl)c2ccccc12 [Lonidamine] | -0.016 °C
Cc1c(C2=CCN(C(=O)N(C)C(C)C)CC2)nnn1-c1cccnc1F | -0.00376 °C
Cc1cc(C(C#N)c2ccc(Cl)cc2)c(Cl)cc1NC(=O)c1cc(I)cc(I)c1O (stereo not drawn) [Closantel Sodium] | 1.01 °C
Cc1cc(C(C#N)c2ccc(Cl)cc2)c(Cl)cc1NC(=O)c1cc(I)cc(I)c1O (stereo not drawn) [Closantel] | 1.07 °C
CCCCCCCCCCOc1cc2c(O)c(C(=O)OCC)cnc2cc1OCC [Decoquinate] | 0.0875 °C
COc1ccc2c(c1)C(=O)N(CCc1ccc(S(=O)(=O)NC(=O)NC3CCCCC3)cc1)C(=O)C2(C)C [Gliquidone] | 0.0529 °C
C=CCc1ccc(O)c(-c2cc(CC=C)ccc2O)c1 [Magnolol] | 0.213 °C
CC(=N)NCc1cccc(CN)c1 [1400W dihydrochloride] | 0.0491 °C
NS(=O)(=O)Cc1noc2ccccc12 [Zonisamide] | 0.133 °C
CN(C)CCN(Cc1ccc(Cl)cc1)c1ccccn1 [Chloropyramine hydrochloride] | 0.156 °C
CC(=O)c1cc([N+](=O)[O-])c(Sc2ccc(F)cc2F)s1 | 0.0141 °C
Cc1nn2c([nH]c(=O)c3cccnc32)c1C#N | 0.151 °C
Cc1cn([C@H]2C[C@H](N=[N+]=[N-])[C@@H](CO)O2)c(=O)[nH]c1=O [Zidovudine] | 0.0052 °C
COc1ccc([C@@H]2Sc3ccccc3N(CCN(C)C)C(=O)[C@@H]2OC(C)=O)cc1 [Diltiazem HCl] | 0.0578 °C
O=C(NCCO)c1ccc(-c2cc(Nc3ccc(OC(F)(F)F)cc3)ncn2)cc1 [Multi-kinase inhibitor I] | -0.033 °C

SMILES | thermal shift ΔTm of Mpro
Cc1sc2c(c1C)C(c1ccc(Cl)cc1)=N[C@@H](CC(=O)OC(C)(C)C)c1nnc(C)n1-2 | -0.0889 °C
Cc1c(Cc2ccc3ccccc3n2)c2cc(F)ccc2n1CC(=O)O [Timapiprant] | -0.0336 °C
Cc1c(Cc2ccc3ccccc3n2)c2cc(F)ccc2n1CC(=O)O | -0.216 °C
CO[C@@H](C(=O)N1Cc2[nH]nc(NC(=O)c3ccc(N4CCN(C)CC4)cc3)c2C1)c1ccccc1 | 0.229 °C
CCN(CCO)CCCOc1ccc2c(Nc3cc(CC(=O)Nc4cccc(F)c4)[nH]n3)ncnc2c1 [Barasertib (AZD1152-HQPA)] | 0.0493 °C
C=CC(=O)N1CCC(Oc2cc3c(Nc4ccc(Cl)c(Cl)c4F)ncnc3cc2OC)CC1 [Poziotinib (HM781-36B)] | -0.213 °C
O=C(OC(C(F)(F)F)C(F)(F)F)N1CCC(C(O)(c2ccc3c(c2)OCO3)c2ccc3c(c2)OCO3)CC1 | 0.0776 °C
O=C(Nc1cccc(-c2ccccc2)c1)OC1CCCCC1 | 0.00491 °C
C=CN1CCCC1=O.II [Povidone-iodine] | 0.128 °C
OC1CN(CCCOCCc2ccc3sccc3c2)C1 [Edonerpic maleate] | -0.00371 °C
Cc1ccc(-c2ncc(Cl)cc2-c2ccc(S(C)(=O)=O)cc2)cn1 [Etoricoxib] | 0.355 °C
NCC(=O)O [Magnesium glycinate] | 0.314 °C
CC1CCc2c(N3CCC(O)CC3)c(F)cc3c(=O)c(C(=O)O)cn1c23 (stereo not drawn) [Nadifloxacin] | -0.0438 °C
OC[C@H]1O[C@@H](c2ccc(F)c(Cc3cc4ccccc4s3)c2)[C@H](O)[C@@H](O)[C@@H]1O [Ipragliflozin] | 0.0508 °C
Clc1ccc(COC(Cn2ccnc2)c2ccc(Cl)cc2Cl)c(Cl)c1 (stereo not drawn) [Miconazole Nitrate] | -0.00772 °C
Clc1ccc(COC(Cn2ccnc2)c2ccc(Cl)cc2Cl)c(Cl)c1 (stereo not drawn) [Miconazole] | -0.336 °C
Cc1cc(=O)n(-c2ccccc2)n1C [Antipyrine] | 0.182 °C
O=C(NCCN1CCC(n2c(=O)[nH]c3ccccc32)CC1)c1cc2cc(F)ccc2[nH]1 | -0.156 °C
CS(=O)(=O)n1cc2c(n1)CN([C@H]1CO[C@H](c3cc(F)ccc3F)[C@@H](N)C1)C2 [Omarigliptin] | 0.0526 °C
CCCN(CCc1cccs1)[C@H]1CCc2c(O)cccc2C1 [Rotigotine] | -0.12 °C
NC12CC3CC(CC(C3)C1)C2 [Amantadine HCl] | -0.0364 °C

SMILES | thermal shift ΔTm of Mpro
CCOc1ccc2nc(SCCN3CCOCC3)[nH]c2c1 [Afobazole hydrochloride] | -0.0484 °C
CCOc1ccc2nc(SCCN3CCOCC3)[nH]c2c1 [Fabomotizole] | 0.137 °C
Cn1ncc(Cl)c1-c1cc(C(=O)N[C@H](CN)Cc2cccc(F)c2)sc1Cl | -0.289 °C
CO[C@H]1O[C@@H]2O[C@@]3(C)CC[C@H]4[C@H](C)CC[C@@H]([C@H]1C)[C@@]24OO3 [Artemether] | -0.0197 °C
CC(C)(C)C[C@@H]1N[C@@H](C(=O)N[C@H]2CC[C@H](O)CC2)[C@H](c2cccc(Cl)c2F)[C@]12C(=O)Nc1cc(Cl)ccc12 | -0.67 °C
O=c1c2ccccc2oc2ccccc12 [Xanthone] | -0.0012 °C
O=c1cc(-c2ccc(O)c(O)c2)oc2cc(O)cc(O)c12 [Luteolin] | -0.833 °C
CCOc1cc(C(=O)N2CCC(N3CCN(C)CC3)CC2)ccc1Nc1ncc2c(n1)N(C1CCCC1)c1ccccc1C(=O)N2C | -0.45 °C
O=C(NOCCO)c1ccc2cncn2c1Nc1ccc(I)cc1F | 0.983 °C
CC(=O)Nc1ccc(NC(=S)NC(=O)c2ccc(C(C)(C)C)cc2)cc1 [Tenovin-1] | -0.163 °C
CC(C)(C(=O)c1cccnc1)c1cccnc1 [Metyrapone] | 0.318 °C
O=C(O)[C@H]1C2CCC(CC2)[C@@H]1Nc1nc(-c2c[nH]c3ncc(F)cc23)ncc1F [Pimodivir] | -0.0579 °C
Nc1ncn([C@H]2C[C@H](O)[C@@H](CO)O2)c(=O)n1 [Decitabine] | 0.137 °C
O=C(Cc1ccc(-c2ccc(OCCN3CCOCC3)cc2)cn1)NCc1ccccc1 | -0.176 °C
CC(C)[C@@H]1[C@H]2OC(=O)[C@@H]1[C@@H]1CC[C@@H]3CN(C)[C@H]2[C@@]31C [Dendrobine] | 0.0347 °C
CC(C)(S)C(N)C(=O)O (racemic) [DL-Penicillamine] | 0.187 °C
CC(=O)N(O)CCCCCNC(=O)CCC(=O)N(O)CCCCCNC(=O)CCC(=O)N(O)CCCCCN [Deferoxamine Mesylate] | 0.0155 °C
O=C1Cc2cc(CCN3CCN(c4nsc5ccccc45)CC3)c(Cl)cc2N1 [Ziprasidone] | -0.0959 °C
O=C1Cc2cc(CCN3CCN(c4nsc5ccccc45)CC3)c(Cl)cc2N1 [Ziprasidone HCl] | 0.217 °C
CC(C)/N=c1\cc2n(-c3ccc(Cl)cc3)c3ccccc3nc-2cc1Nc1ccc(Cl)cc1 [Clofazimine] | 0.0226 °C

Some values from the results shown:
CC(=O)N(O)CCCCCNC(=O)CCC(=O)N(O)CCCCCNC(=O)CCC(=O)N(O)CCCCCN [Deferoxamine Mesylate] | thermal shift ΔTm of Mpro: 0.0155 °C
CC(C)[C@@H]1[C@H]2OC(=O)[C@@H]1[C@@H]1CC[C@@H]3CN(C)[C@H]2[C@@]31C [Dendrobine] | thermal shift ΔTm of Mpro: 0.0347 °C
O=C(O)[C@H]1C2CCC(CC2)[C@@H]1Nc1nc(-c2c[nH]c3ncc(F)cc23)ncc1F [Pimodivir] | thermal shift ΔTm of Mpro: -0.0579 °C

2 records picked at random from the list so far, as already listed:
SMILES | thermal shift ΔTm of Mpro
Cc1c(NC(=O)OC[C@@H]2COCCN2)cn2ncnc(Nc3ccc4c(cnn4Cc4cccc(F)c4)c3)c12 | 0.115 °C
Cc1nn2c([nH]c(=O)c3cccnc32)c1C#N | 0.151 °C

— the supplement of paper PMC8166895
